For at least one compound, name, drawing or mass did not settle the structure. Marks after values point to notes of the source that are not given here.
Test system: rat intestinal α-glucosidase
Test: Mammalian α-glucosidase inhibition assay (rat intestinal acetone powder, maltose substrate)
Type: biochemical
Procedure: Bakers yeast α-glucosidase [EC 3.2.1.20], and porcine pancreatic α-amylase [EC 3.2.1.1]were used during bioassay guided fractionation. Rat intestinal acetone powder was used as a source of mammalian α-glucosidase. The EnzChek® Ultra Amylase Assay kit (E-33651) was purchased from Molecular Probes (Eugene, Oreg., USA).
In each bioassay the hydrolysis product was measured using the Victor 2 multi-plate reader (Wallac, Turku, Finland) and all samples were tested in duplicate or triplicate. Non-enzyme controls were subtracted from the enzyme absorbance and the percentage inhibition of test samples was calculated as: […]
:wherein A and B are the absorbance of the hydrolysis product in the absence and presence of inhibitor, respectively. Percent inhibition values were expressed as mean±standard deviation. […]
The α-glucosidase inhibitory activity of pure compounds was measured as described previously, with some modifications. […]
The substrate maltose (3 mM, 20 μL) was added to 96-well plates containing the crude α-glucosidase mixture (20 μL) and sample (10 μL). […] The glucose liberated was measured by adding 30 μL of the reaction mixture to the Glucose Hexokinase assay reagent (170 μL), which was mixed and incubated for 15 minutes at room temperature. The fluorescence of the mixture was measured at λex 340 nm, λem 470 nm.

## C[C@H]1O[C@H](O[C@H]2[C@H](O)[C@@H](O)[C@@H](O[C@H]3[C@H](O)[C@@H](O)C(O)O[C@@H]3CO)O[C@@H]2CO)[C@H](O)[C@@H](O)[C@@H]1N[C@H]1C=C(CO)[C@@H](O)[C@H](O)[C@H]1O (stereo partly shown) [Acarbose, reference compound]
  Glucosidase (rat) % Inhibition at 200 μM: ~100%*

From patent US20120115941A1, “Compounds Affecting Glycemic Index” (SACRON INNOVATIONS PTY LIMITED, priority 2009, published 2012)
